Experimental data published in patent publication US20080103086A1, “METHODS FOR THE TREATMENT OF DISEASES ASSOCIATED WITH THE SECRETION OF HMGB1” (priority 2006, published 2008).
Results are given in words; binding and its absence hold for the method and conditions named. In cells and extracts the contact can be indirect. Some binding calls cover weakened binding; strength is not graded here.

Chains of the proteins cited; added tags and fusions are not shown.
UniProt P52294: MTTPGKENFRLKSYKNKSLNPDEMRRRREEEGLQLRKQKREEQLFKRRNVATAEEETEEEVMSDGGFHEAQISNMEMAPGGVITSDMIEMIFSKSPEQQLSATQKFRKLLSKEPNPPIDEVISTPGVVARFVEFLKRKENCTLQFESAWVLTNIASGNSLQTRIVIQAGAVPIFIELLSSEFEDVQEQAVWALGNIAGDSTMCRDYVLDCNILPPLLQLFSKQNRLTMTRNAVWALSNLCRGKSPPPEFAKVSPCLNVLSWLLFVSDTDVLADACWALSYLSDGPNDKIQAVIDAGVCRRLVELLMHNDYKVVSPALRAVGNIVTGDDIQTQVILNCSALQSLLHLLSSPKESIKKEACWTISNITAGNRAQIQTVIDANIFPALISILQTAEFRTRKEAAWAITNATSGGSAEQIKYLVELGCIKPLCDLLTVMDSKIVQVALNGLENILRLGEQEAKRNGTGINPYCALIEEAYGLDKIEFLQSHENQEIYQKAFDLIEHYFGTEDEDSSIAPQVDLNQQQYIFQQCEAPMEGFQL
UniProt P09429: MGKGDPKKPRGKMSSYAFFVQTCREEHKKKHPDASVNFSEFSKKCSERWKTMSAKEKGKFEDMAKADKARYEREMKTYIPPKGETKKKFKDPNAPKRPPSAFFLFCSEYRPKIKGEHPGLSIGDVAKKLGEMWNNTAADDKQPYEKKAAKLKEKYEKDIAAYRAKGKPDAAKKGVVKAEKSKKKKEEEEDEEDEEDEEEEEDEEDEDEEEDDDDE

Legend:
[1] = target: T1, GST-KAP-α1 fusion protein (human, UniProt P52294 1-538); experiment: GST pull-down with purified recombinant proteins, anti-His blot
T1 construct: Produced in E. coli BL21, immobilized on glutathione-Sepharose 4B beads; the primers start at the ATG of the coding region; not shown: glutathione S-transferase (GST) tag encoded by vector pGEX-4T-1 (Pharmacia)

Flag-tagged KAP-α1 = target: T2, Flag-tagged KAP-α1 (human, UniProt P52294 1-538); experiment: co-immunoprecipitation from co-transfected RAW 264.7 cells (anti-GFP and anti-Flag), Western blot
T2 construct: Expressed in co-transfected RAW 264.7 cells; used in co-immunoprecipitation; also called FLAG-KAP-α1; not shown: Flag tag of vector pCMV-Tag2 (Stratagene)
Description: To observe the binding of KAP protein to each mutant HMGB1 in the cells, Flag-tagged KAP-α1 and each mutant HMGB1-GFP plasmid were co-transfected into RAW 264.7 cells. Cell homogenates of transfected RAW 264.7 cells were harvested and incubated with mouse anti-Flag (M2, Sigma) and mouse anti-GFP (Santa Cruz) at 4° C. overnight. Immune complexes were collected and the membranes were blotted with anti-Flag and anti-GFP, respectively. The reciprocal experiment was also performed. GST was used as a negative control. And to test the direct binding of HMGB1 to KAP-α1, GST pull-down assay was performed as described above.
To observe the effect of phosphorylation in both NLS regions of HMGB1 on the binding to KAP-α1 and on the subcellular localization of HMGB1 in the transfected cells, a number of site-directed mutations in six serines of NLS1 and NLS2 were generated using a HMGB1-GFP fusion construct plasmid (FIG. 5A). Serines 35, 39, 42, 46, 53 within or close to NLS1 and serine 181 at NLS2 were alternatively or totally mutated into alanine or glutamic acid. […] RAW 264.7 cells were co-transfected with a Flag-tagged KAP-α1 plasmid and each mutant HMGB1-GFP plasmid, and immunoprecipitates using anti-GFP (FIG. 5B) or anti-Flag (FIG. 5C) were analyzed with anti-Flag for KAP-α1 or anti-GFP for HMGB1.

## six His-tagged wild type HMGB1 (from UniProt P09429 1-215)
[1]
  binding: binds

## wild-type HMGB1-GFP (from UniProt P09429 1-215)
Flag-tagged KAP-α1
  binding: binds
